# Assay results as given in paper PMC9169620, “Helical self-assembly of a mucin segment suggests an evolutionary origin for von Willebrand factor tubules” (Proceedings of the National Academy of Sciences of the …, 2022).
# These are yes or no findings as the source states them, for the method shown. Sequences can lack the tags named with a protein.
# B1: MUC2 D1D2D3 (residues 21 to 1259 followed by a His6 tag) (domain or fragment, human, UniProt Q02817 21-1259, looked up)
# chain: SELQTEGRTRNHGHNVCSTWGNFHYKTFDGDVFRFPGLCDYNFASDCRGSYKEFAVHLKRGPGQAEAPAGVESILLTIKDDTIYLTRHLAVLNGAVVSTPHYSPGLLIEKSDAYTKVYSRAGLTLMWNREDALMLELDTKFRNHTCGLCGDYNGLQSYSEFLSDGVLFSPLEFGNMQKINQPDVVCEDPEEEVAPASCSEHRAECERLLTAEAFADCQDLVPLEPYLRACQQDRCRCPGGDTCVCSTVAEFSRQCSHAGGRPGNWRTATLCPKTCPGNLVYLESGSPCMDTCSHLEVSSLCEEHRMDGCFCPEGTVYDDIGDSGCVPVSQCHCRLHGHLYTPGQEITNDCEQCVCNAGRWVCKDLPCPGTCALEGGSHITTFDGKTYTFHGDCYYVLAKGDHNDSYALLGELAPCGSTDKQTCLKTVVLLADKKKNVVVFKSDGSVLLNELQVNLPHVTASFSVFRPSSYHIMVSMAIGVRLQVQLAPVMQLFVTLDQASQGQVQGLCGNFNGLEGDDFKTASGLVEATGAGFANTWKAQSSCHDKLDWLDDPCSLNIESANYAEHWCSLLKKTETPFGRCHSAVDPAEYYKRCKYDTCNCQNNEDCLCAALSSYARACTAKGVMLWGWREHVCNKDVGSCPNSQVFLYNLTTCQQTCRSLSEADSHCLEGFAPVDGCGCPDHTFLDEKGRCVPLAKCSCYHRGLYLEAGDVVVRQEERCVCRDGRLHCRQIRLIGQSCTAPKIHMDCSNLTALATSKPRALSCQTLAAGYYHTECVSGCVCPDGLMDDGRGGCVVEKECPCVHNNDLYSSGAKIKVDCNTCTCKRGRWVCTQAVCHGTCSIYGSGHYITFDGKYYDFDGHCSYVAVQDYCGQNSSLGSFSIITENVPCGTTGVTCSKAIKIFMGRTELKLEDKHRVVIQRDEGHHVAYTTREVGQYLVVESSTGIIVIWDKRTTVFIKLAPSYKGTVCGLCGNFDHRSNNDFTTRDHMVVSSELDFGNSWKEAPTCPDVSTNPEPCSLNPHRRSWAEKQCSILKSSVFSICHSKVDPKPFYEACVHDSCSCDTGGDCECFCSAVASYAQECTKEGACVFWRTPDLCPIFCDYYNPPHECEWHYEPCGNRSFETCRTINGIHSNISVSYLEGCYPRCPKDRPIYEEDLKKCVTADKCGCYVEDTHYPPGASVPTEETCKSCVCTNSSQVVCRPEEGKILNQTQDGAFCYWEICGPNGTVEKHFNICSIT
# notes: Mucin-2 (MUC2), human intestinal gel-forming mucin, amino-terminal D1D2D3 region, residues 21 to 1259, without CysD1; The dimers assemble into two-start helical tubules at acidic pH; also called D1D2D3 fragment; MUC2 amino-terminal fragment spanning the D1D2D3 region but lacking CysD1; source: HEK 293F, transient transfection, purified from culture medium (Ni-NTA); not shown: His6, C-terminal, …
# Biological target: MUC2 D1D2D3 (residues 21 to 1259 followed by a His6 tag) (human) (UniProt Q02817)
# Assay: condition: only at pH 6.0 and above (sharp transition to large species between pH 6.0 and pH 5.8); dynamic light scattering; MUC2 D1D2D3 at 0.3 mg/mL in 50 mM MES at varying pH, 150 mM NaCl, 37 °C; samples at pH 6.0 and above (before the transition to large species); both purified
binder,measurement,value
B1,binding,no binding
